# Reference: paper PMC7846557
# Sequences of proteins named here, by UniProt entry; tags and fusion partners are left off.
# UniProt Q91WB2: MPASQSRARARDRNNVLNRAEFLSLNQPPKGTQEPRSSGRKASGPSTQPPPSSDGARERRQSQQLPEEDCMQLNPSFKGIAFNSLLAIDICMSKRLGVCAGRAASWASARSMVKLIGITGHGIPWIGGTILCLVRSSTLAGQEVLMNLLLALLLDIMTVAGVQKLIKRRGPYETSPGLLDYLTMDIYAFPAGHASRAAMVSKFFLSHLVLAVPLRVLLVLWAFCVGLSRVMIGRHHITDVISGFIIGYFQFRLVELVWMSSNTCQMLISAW
# Results are given in words; binding and its absence hold for the method and conditions named. Binding seen in cells or lysates may run through a third protein. A yes stands for co-enrichment or nearness to the bait. Other partners may have been found.
# Molecular target: Net39-miniTurbo (nuclear envelope transmembrane protein 39 with the biotin ligase miniTurbo at the C-terminus) (mouse) (UniProt Q91WB2)
# Test: proximity labelling; BioID: Net39-miniTurbo in C2C12 myotubes, 500 µM biotin for 4 h against no biotin; lysis in 6 M urea, 10% SDS; streptavidin magnetic beads; biotinylated proteins detected by western blot
binder,measurement,value
"SUN2 (protein, UniProt Q8BJS4 1-731) MSRRSQRLTRYSQDDNDGGSSSSGASSVAGSQGTVFKDSPLRTLKRKSSNMKHLSPAPQLGPSSDSHTSYYSESVVRESYIGSPRAVSLARSALLDDHLHSEPYWSGDLRGRRRRGTGGSESSKANGLTAESKASEDFFGSSSGYSSEDDLAGYTDSDQHSSGSRLRSAASRAGSFVWTLVTFPGRLFGLLYWWIGTTWYRLTTAASLLDVFVLTRSRHFSLNLKSFLWFLLLLLLLTGLTYGAWHFYPLGLQTLQPAVVSWWAAKESRKQPEVWESRDASQHFQAEQRVLSRVHSLERRLEALAADFSSNWQKEAIRLERLELRQGAAGHGGGSSLSHEDALSLLEGLVSRREATLKEDLRRDTVAHIQEELATLRAEHHQDSEDLFKKIVQASQESEARVQQLKTEWKSMTQEAFQESSVKELGRLEAQLASLRQELAALTLKQNSVADEVGLLPQKIQAARADVESQFPDWIRQFLLGDRGARSGLLQRDEMHAQLQELENKILTKMAEMQGKSAREAAASLGQILQKEGIVGVTEEQVHRIVKQALQRYSEDRIGMVDYALESGGASVISTRCSETYETKTALLSLFGIPLWYHSQSPRVILQPDVHPGNCWAFQGPQGFAVVRLSARIRPTAVTLEHVPKALSPNSTISSAPKDFAIFGFDEDLQQEGTLLGTFAYDQDGEPIQTFYFQASKMATYQVVELRILTNWGHPEYTCIYRFRVHGEPAH",binding,binds
